Laboratory results published in article doi:10.1101/707216.

The chains behind the UniProt entries cited, without tags or fusion partners.
UniProt Q2YD98: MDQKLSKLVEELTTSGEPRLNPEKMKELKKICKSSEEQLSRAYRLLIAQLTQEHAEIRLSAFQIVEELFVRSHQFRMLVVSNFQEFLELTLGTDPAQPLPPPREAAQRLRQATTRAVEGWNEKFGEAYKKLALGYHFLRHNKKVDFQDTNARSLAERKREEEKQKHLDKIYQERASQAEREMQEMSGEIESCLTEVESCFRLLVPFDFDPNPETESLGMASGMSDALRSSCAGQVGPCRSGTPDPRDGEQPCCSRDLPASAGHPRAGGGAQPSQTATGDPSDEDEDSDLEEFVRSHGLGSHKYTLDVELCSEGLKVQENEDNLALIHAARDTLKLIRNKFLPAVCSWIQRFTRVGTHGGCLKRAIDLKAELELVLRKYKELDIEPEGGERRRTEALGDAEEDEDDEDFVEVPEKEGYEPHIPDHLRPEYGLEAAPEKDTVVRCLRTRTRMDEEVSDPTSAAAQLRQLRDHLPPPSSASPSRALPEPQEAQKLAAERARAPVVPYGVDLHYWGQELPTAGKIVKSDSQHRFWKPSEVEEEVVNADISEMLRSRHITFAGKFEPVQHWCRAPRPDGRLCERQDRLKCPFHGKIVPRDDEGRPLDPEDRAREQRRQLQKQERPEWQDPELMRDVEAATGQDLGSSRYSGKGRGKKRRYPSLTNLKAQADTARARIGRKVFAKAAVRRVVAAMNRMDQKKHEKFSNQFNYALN
UniProt Q93009: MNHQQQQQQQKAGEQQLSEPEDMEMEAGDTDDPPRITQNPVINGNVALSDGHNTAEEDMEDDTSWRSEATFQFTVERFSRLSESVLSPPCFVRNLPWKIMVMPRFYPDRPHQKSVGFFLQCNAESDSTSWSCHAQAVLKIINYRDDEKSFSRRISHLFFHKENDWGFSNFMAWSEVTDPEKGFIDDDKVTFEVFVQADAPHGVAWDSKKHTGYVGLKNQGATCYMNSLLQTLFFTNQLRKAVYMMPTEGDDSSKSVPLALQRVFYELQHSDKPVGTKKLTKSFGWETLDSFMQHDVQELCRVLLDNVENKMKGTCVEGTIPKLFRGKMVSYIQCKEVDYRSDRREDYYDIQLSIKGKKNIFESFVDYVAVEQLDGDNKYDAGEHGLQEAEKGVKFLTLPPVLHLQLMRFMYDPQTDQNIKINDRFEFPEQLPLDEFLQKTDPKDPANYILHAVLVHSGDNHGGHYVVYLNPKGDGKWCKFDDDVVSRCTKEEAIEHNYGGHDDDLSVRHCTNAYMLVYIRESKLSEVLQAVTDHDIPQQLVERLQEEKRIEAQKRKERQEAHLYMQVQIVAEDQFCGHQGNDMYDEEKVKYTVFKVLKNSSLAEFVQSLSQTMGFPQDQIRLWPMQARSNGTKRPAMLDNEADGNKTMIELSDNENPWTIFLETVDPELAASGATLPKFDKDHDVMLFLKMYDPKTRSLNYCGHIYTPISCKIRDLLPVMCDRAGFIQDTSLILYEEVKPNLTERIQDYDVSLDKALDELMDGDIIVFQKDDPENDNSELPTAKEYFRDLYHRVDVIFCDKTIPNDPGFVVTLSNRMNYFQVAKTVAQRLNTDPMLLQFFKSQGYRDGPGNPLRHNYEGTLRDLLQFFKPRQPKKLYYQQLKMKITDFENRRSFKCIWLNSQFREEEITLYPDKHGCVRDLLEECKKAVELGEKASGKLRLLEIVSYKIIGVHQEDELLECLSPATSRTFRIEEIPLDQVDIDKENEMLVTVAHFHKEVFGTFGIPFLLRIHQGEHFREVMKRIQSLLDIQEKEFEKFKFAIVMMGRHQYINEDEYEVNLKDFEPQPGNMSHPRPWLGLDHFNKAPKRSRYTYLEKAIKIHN

Biological target: GFP-UVSSA^WT (human) (UniProt Q2YD98)
Assay: affinity purification with mass spectrometry

USP7 (from UniProt Q93009 1-1102)
binding: binds

Results are given in words; binding and its absence hold for the method and conditions named. Binding seen in cells or lysates may run through a third protein. These calls come from enrichment with a bait or labelling near it, and not all partners need be listed.
